The list shows a part of the results. Values are raw readings; no control value is given beside them.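 In the initial screen, polymyxin B was used at a concentration that permeabilizes Salmonella's outer membrane but not its inner membrane. Maximum growth was set by DMSO wells with or without polymyxin B. Since plates varied, data were ranked per plate, and compounds giving the lowest OD600 advanced as hits.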
System: Salmonella enterica serovar Typhimurium SL1344
Experiment: bacterial growth OD600 after 18 h with compound and polymyxin B; higher = more bacterial growth (less inhibition)
Settings: 50 µM, Mueller-Hinton broth

SMILES | bacterial growth OD600 (polymyxin B 0.75 µg/mL) | bacterial growth OD600 (polymyxin B 1 µg/mL)
NC(=O)C1(C(=O)N2CCc3onc(-c4cccc5ccccc45)c3C2)CC1 | 0.777 | –
CSCC[C@H](NC(C)=O)C(=O)N1CCC(CCC(=O)Nc2cccc(C)c2)CC1 | – | 1.01
O=C1CCC(C(=O)N2CCC(OCc3ccccc3)CC2)CN1CCN1CCOCC1 (stereo unspecified) | – | 0.909
COc1ccc(C(=O)N2CCCC(C(=O)c3ccc(Cl)cc3C)C2)o1 (stereo unspecified) | – | 0.011
CCN1CCN(C(=O)c2cc(COc3cccc(C(F)(F)F)c3)[nH]n2)CC1 | 0.787 | –
COc1cccc(CN2CCN(Cc3cccc(F)c3F)CC2CCO)c1 (stereo unspecified) | – | 0.885
CCn1cc(CN2CCCC2C(=O)Nc2ccccc2Oc2cccnc2)c(C)n1 (stereo unspecified) | 0.86 | –
COc1ccc(C(=O)N(Cc2ccc(OCCc3scnc3C)c(OC)c2)[C@H]2CCCCNC2=O)c(OC)c1 | 0.788 | –
Cc1nc(CCNC(=O)C2CCC(=O)N(CCCN3CCOCC3)C2)nc2c1CCC2 (stereo unspecified) | – | 0.815
CCCc1cc(CNC(=O)c2ccc(N(C)C(C)C)nc2)on1 | – | 0.852
O=C(NCc1ccc(F)c(F)c1)c1cc(COc2c(F)cccc2F)on1 | – | 0.775
COc1ccccc1NC(=O)NC1CC(=O)N(Cc2cccc(F)c2)C1 (stereo unspecified) | – | 0.933
CCN1CCCCC1C(=O)N1CCOc2ccc(CN3CCC(OCc4ccccc4)CC3)cc2C1 (stereo unspecified) | 0.95 | –
COCc1c(C(=O)NCc2ccc(OC)cc2OC)cnn1-c1nccc(-c2cc(C)sc2C)n1 | 0.132 | –
CC(=O)c1ccc(C(=O)N2CCC(C(Cc3ccccc3C)N(C)C(=O)Cn3cccn3)CC2)s1 (stereo unspecified) | 0.88 | –
COc1ccccc1CCC(=O)N1CCc2onc(-c3ccccc3F)c2C1 | 0.521 | –

SMILES | bacterial growth OD600 (polymyxin B 0.75 µg/mL) | bacterial growth OD600 (polymyxin B 1 µg/mL)
CCn1nc(C)c(CNCc2c(C(=O)N3CCCC3)nc3sccn23)c1C | – | 0.87
COCC1CCN(C(=O)c2ccc(OC3CCN(C(=O)C4CC4)CC3)cc2)CC1 | – | 0.86
CC(c1ccon1)N(C)C(=O)c1coc(COc2ccccc2F)n1 (stereo unspecified) | 0.858 | –
COc1ccc(NC(=O)CCC2CCCN(C(=O)c3csc(C(C)=O)c3)C2)cc1Cl (stereo unspecified) | – | 0.928
CCN(CC1CCN(CCc2ccccc2C)CC1)C(=O)c1cccs1 | – | 0.905
COC(=O)c1ccc(-c2nc(CN(C)Cc3nonc3C)c(C)o2)cc1 | – | 0.901
COc1ccc(-c2ccccc2NC(=O)C2CCCN(CC(C)C)C2)cc1 (stereo unspecified) | – | 0.868
CC(C)CN(C)C(=O)c1coc(COc2cccc(F)c2F)n1 | – | 0.929
COCCC(=O)N1CCC(Oc2ccc(C(=O)N3CCCC(COC)C3)cc2)CC1 (stereo unspecified) | – | 0.811
COc1ccccc1CN1C[C@@H]2C[C@@H](c3ccccc3C(F)(F)F)N3CCC[C@@]23C1=O | 0.428 | –
CCN(CC1CCN(CCc2ccccc2C)CC1)C(=O)C1=CCCC1 | – | 0.917
CN(CCn1ccnc1)c1ccc(-c2nc(Cc3ccc(F)cc3)no2)cn1 | 0.693 | –
CC1CN(CC(=O)NCC(c2cccnc2)N2CCOCC2)Cc2cc(Cl)ccc2O1 (stereo unspecified) | 0.74 | –
COc1cc(CN2CCN(Cc3cccc(SC)c3)CC2CCO)cc(OC)c1 (stereo unspecified) | – | 0.924
COCC(=O)Nc1cc(C(=O)N(C)Cc2ccc3nccnc3c2)c2c(c1)nc(C1CCC1)n2C | 0.954 | –
